Source: article PMC2075816
No constants are given. Whether binding was seen depends on the method and setting. For part of these data: Binding seen in cells or lysates may run through a third protein.

Tests used:
[1] = target: chromogranin A (CgA) in phaeochromocytoma heat-stable fraction (HSF) (human) (UniProt P10645); assay: ELISA; homosandwich ELISA: the same monoclonal antibody (B4E11 or A11) on the solid phase and biotinylated for detection, so a signal needs polyvalent CgA; M-ELISA conditions, room temperature, PBS with BSA, with 0.05% Tween 20 and also with Tween 20 left out of all buffers; heterosandwich controls (B4E11/A11-bio, A11/B4E11-bio) gave strong signals
[2] = target: chromogranin A (CgA) in phaeochromocytoma heat-stable fraction (HSF) (human) (UniProt P10645); assay: cross-linking; phaeochromocytoma HSF treated with DSS, then SDS-PAGE and Western blotting for CgA
[3] = target: chromogranin A (CgA) in phaeochromocytoma heat-stable fraction (HSF) (human) (UniProt P10645); assay: cross-linking + ELISA; phaeochromocytoma HSF treated with DSS (25 mM stock, 30 min at 25 C, stopped with ammonium acetate), then analysed by homo- and heterosandwich ELISAs with B4E11 and A11

Measured: binding

B1: chromogranin A (CgA) in phaeochromocytoma heat-stable fraction (HSF) (protein, UniProt P10645 19-457)
chain: LPVNSPMNKGDTEVMKCIVEVISDTLSKPSPMPVSQECFETLRGDERILSILRHQNLLKELQDLALQGAKERAHQQKKHSGFEDELSEVLENQSSQAELKEAVEEPSSKDVMEKREDSKEAEKSGEATDGARPQALPEPMQESKAEGNNQAPGEEEEEEEEATNTHPPASLPSQKYPGPQAEGDSEGLSQGLVDREKGLSAEPGWQAKREEEEEEEEEAEAGEEAVPEEEGPTVVLNPHPSLGYKEIRKGESRSEALAVDGAGKPGAEEAQDPEGKGEQEHSQQKEEEEEMAVVPQGLFRGGKSGELEQEEERLSKEWEDSKRWSKMDQLAKELTAEKRLEGQEEEEDNRDSSMKLSFRARAYGFRGPGPQLRRGWRPSSREDSLEAGLPLQVRGYPEEKKEEEGSANRRPEDQELESLSAIEAELEKVAHQLQALRRG
no binding: [1] | [2] | [3]
